Data source: PubChem BioAssay AID1259300 (Sanger Institute, 2017)
This is a random part of 794 reagents. In the full data, 18 (2.3%) are marked active. 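Calls rest on knock-down alone, not drug synergy; depositor treated synergy scores above 0.15 as synergistic; drug doses alone had little viability effect.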 Unmarked entries are inactive. No viability above 1 is reported: the scale is capped. Not all columns of the deposit are shown. Not stated in the record: the amount of reagent, the time to read-out.

Test: 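Which knock-downs harm HCT15 alone or synergise with the drugs BYL719, cetuximab or trametinib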 (primary screen)
Cells: HCT15 colorectal cancer cells
Reagents: siRNA pool against human genes
Challenge: anchor drug or DMSO vehicle added 24 h after seeding: BYL719 1 µM, cetuximab 5 µg/ml, trametinib 10 nM; drug doses chosen to barely affect viability alone
Detection: 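Replicate-mean viability relative to non-targeting pool control with robust z-score for knock-down without drug; per-drug synergy scores for BYL719 (1 µM), cetuximab (5 µg/ml), trametinib (10 nM)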
Direction: viability z-score, siRNA alone: higher = more viable cells after knock-down; viability vs non-targeting, siRNA alone: higher = more viable cells; synergy score with BYL719: higher = stronger synergy of knock-down with drug
Active means: 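a knock-down without drug that drives the robust viability z-score under -3 is active, i.e. essential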
Meaning of the calls: active = essential: knock-down alone lowers viability (z below -3); inactive = no strong viability loss with knock-down alone

Gene	viability z-score, siRNA alone	viability vs non-targeting, siRNA alone	synergy score with BYL719
DLG3	-1.55	0.842	-0.000903
CDKN1A	0.625	1	0.218
TRIO	-0.291	0.933	0.0169
TSSK4	0.43	0.986	0.209
PI4KA	0.625	1	0.0883
PDIK1L	0.625	1	0.255
FOXP1	-1.52	0.844	0.0887
CREBBP	-1.98	0.81	0.283
CAMKK1	-0.0304	0.952	0.0904
TNK2	0.625	1	0.13
UCK1	0.625	1	0.0691
GAK	0.625	1	0.137
SMAD4	0.35	0.98	0.223
CHEK1	-2.56	0.768	0.125
TESK2	0.625	1	-0.085
PRKG1	-0.596	0.911	-0.0725
MAP4K3	-0.49	0.919	0.145
TAB1	-0.0575	0.95	-0.0404
FN3KRP	-0.394	0.926	0.193
MAPK11	0.189	0.968	0.217
CDK14	0.0472	0.958	0.174
STK38	-0.961	0.885	0.0273
PIK3CB	-0.179	0.942	0.194
CLK2	0.625	1	0.0997
NEK9	0.625	1	0.18
STK32B	-0.63	0.909	0.0625
PDK1	-0.646	0.908	0.0113
MPP1	0.625	1	0.05
BMP2K	0.625	1	0.0219
NUP62	-1.44	0.85	0.182
PRKAA1	0.625	1	0.0686
PRKG2	0.0859	0.961	0.297
FYN	-0.0452	0.951	0.0877
CIB2	-1.14	0.872	0.1
CDC73	-0.546	0.915	0.252
KIT	0.625	1	0.142
MAST4	0.445	0.987	-0.0358
TLK1	-0.128	0.945	0.0537
SYNCRIP	0.422	0.985	0.342
CSNK1D	0.625	1	0.245
CDK15	0.625	1	0.039
STRADB	-2.57	0.768	-0.0654
PIP5K1B	0.625	1	0.133
ERN1	0.122	0.963	0.25
SCYL1	0.625	1	0.0965
OXSR1	0.473	0.989	0.316
TRIB2	0.625	1	0.29
GK2	-0.859	0.892	0.0241
OBSCN	0.625	1	0.238
AAK1	-0.0121	0.954	0.24
TAF1L	-1.41	0.852	0.0314
RBKS	0.625	1	0.0601
ERBB2	0.406	0.984	0.134
PIM1	-0.265	0.935	0.221
ROCK1	0.625	1	-0.0475
SGK2	0.625	1	0.195
PAK4	0.325	0.978	0.0436
ROCK2	0.625	1	0.0529
CALM3	0.441	0.987	0.172
FBXW7	0.625	1	-0.000193
PIP4K2B	0.512	0.992	0.26
EIF2AK2	-0.37	0.928	0.0877
PIK3C2A	-1.45	0.849	0.167
